This passage reports binding results from US20220178930A1.

These are yes or no findings as the source states them, for the method shown. Some entries that bind do so weakly or less than the wild type.

The test concerns the target Galectin-9 (human) (UniProt O00182). Description: flow cytometry on cells of tumor biopsy fractions. In general terms: Flow cytometry measures light scatter and fluorescence of single cells or particles in a stream.

B1: anti-Galectin-9 G9.2-17 Fab fragment (Fab, V domains shown)
VH: EVQLVESGGGLVQPGGSLRLSCAASGFTVSSSSIHWVRQAPGKGLEWVAYISSSSGYTYYADSVKGRFTISADTSKNTAYLQMNSLRAEDTAVYYCARYWSYPSWWPYRGMDYWGQGTLVTVSS
VL: DIQMTQSPSSLSASVGDRVTITCRASQSVSSAVAWYQQKPGKAPKLLIYSASSLYSGVPSRFSGSRSGTDFTLTISSLQPEDFATYYCQQSSTDPITFGQGTKVEIKR
In the case of B1, the binding entry is given as “binds”.
